Reference: PubChem BioAssay AID588463 (National Center for Advancing Translational Sciences (NCATS), 2011)
Hit rate of the full screen: of about 1,200 compounds, about 15 (1%) were called active. Inconclusive results (about 7%) are left out. Calls come from the whole dose curve; as a rule, active = well fitted activation curve with a large enough effect; inconclusive = small, poorly fitted or top-dose-only effect; inactive = flat fitted curve, though single readings scatter. This is one part of the list.

Biological target: Beta-2 adrenergic receptor (Homo sapiens) (UniProt P07550)
Assay: qHTS assay of beta-arrestin-biased ligands of beta2-adrenergic receptor: Hit Validation;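 note: plate controls were DMSO for no effect and maximal isoproterenol or metaproterenol response for full effect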
Conditions: cell-based beta-arrestin recruitment to beta2AR; Potency: activation; series mostly up to 46.1 µM; activation: at the top concentration
In short: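 Luminescent tTA-driven luciferase reporter in Tango cells, read after 18 h at 37 °C with compound and 15 min with substrate mix (0.15 mM ATP, 0.44 mM D-luciferin, final). Concentration-response fits categorized by curve class.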

activation, inactive:
C/C(=N\NC(=O)c1c[nH]c2ccccc12)c1ccc(C)s1 -10.2%, O=C(Oc1c(-c2ccccc2)c(=O)n2c3c(cccc13)CC2)c1ccccc1 -0.833%, CCC(C)NC(=O)C1CCN(S(=O)(=O)N2CCC3(CC2)OCCO3)CC1 (stereo not given) -5.35%, NC(=S)N/N=C/c1ccccc1OC(=O)/C=C/c1ccccc1 -0.571%, Cc1ccc(CNc2ccc(O)cc2)cc1 -4.03%, O=c1[nH]nc(CNc2ccc(O)cc2)c2ccccc12 -3.03%, Cc1ccc(C2=NOC(C)(c3nnc(-c4ccc(F)cc4)o3)C2)cc1 (stereo not given) -4.53%, CN(C)CCCN(C(=O)c1ccc(S(=O)(=O)N2CCc3ccccc3C2)cc1)c1nc2ccc(F)cc2s1 -4.35%, C=CCNC(=S)N/N=C/c1cccc([N+](=O)[O-])c1 -2.48%, COc1cccc([C@@H]2Oc3ccc(Br)cc3C(=O)[C@H]2OC(=O)NC2CCCC2)c1 1.55%, Cc1cc(C)c2sc(N(CCCN(C)C)C(=O)c3ccc(S(=O)(=O)N4CCc5ccccc5C4)cc3)nc2c1 -0.858%, O=C(NCc1cccc(Cl)c1)c1ccc(S(=O)(=O)Nc2cccc(C(F)(F)F)c2)cc1 -2.28%, COc1cccc(C(=O)N/N=C/C(Br)=C/c2ccccc2)c1 -3.75%, CCOC(=O)CCCc1ccc(/C(C)=N/NC(N)=S)cc1 -1.83%, CN=C(c1ccc(C)cc1)n1c(=S)nc(-c2ccc(C)cc2)n(C)c1=S -2.89%, CN(C)/C=C/C(=O)c1ccc(F)cc1 -2.41%, CC[C@]1(C(=O)OC)[C@H]2C(=O)N(Cc3ccccc3)C(=O)[C@H]2[C@H]2CN(C)C(=NCc3ccccc3)N21 -6.13%, CCN1C(=NCCc2cccnc2)N[C@@H](c2ccccc2)C(C(=O)OC)=C1C -2.42%, O=C(N/N=C\C=C\c1ccco1)C1COc2ccccc2O1 (stereo not given) -2.32%, O=c1[nH]c2c(cnn2-c2ccc(Cl)cc2)c(=O)n1-c1cccc(Cl)c1 -4.33%, N#Cc1cccnc1N1CCN(C(=O)c2cccc3c2C(=O)c2ccc(-c4ccc(Cl)c(C(F)(F)F)c4)cc2S3(=O)=O)CC1 -2.09%, NC(=S)NN=C(c1ccccc1)c1ccccc1 -1.39%, CCOC(=O)C1=CC[C@@H](c2cc3ccc(OC)cc3n2C)N(S(=O)(=O)c2ccc(C)cc2)[C@H]1C(=O)OCC -2.16%, Cc1cc(C)c2c(NC(=S)NC(=O)c3ccccc3)nn(C)c2n1 -1.02%, Cc1noc(/C=C/c2ccco2)c1S(=O)(=O)N1CCC(C(=O)N2CCc3ccccc3C2)CC1 -3.07%, CN(C)c1nc(=NCc2ccco2)ss1 -4.96%, CCCN=C1N(CC)C[C@@H]2[C@@H]3C(=O)N(C)C(=O)[C@@H]3[C@](CC)(C(=O)OC)N12 -5.3%, O=C(NC(=S)Nc1cccc2c(O)cccc12)c1cccc(Br)c1 -4.08%, CCOC(=O)NC(=S)Nc1ccc(C(C)(C)C)cc1 -2.43%, C[C@H](NC(=O)c1ccccc1)C(=O)Nc1nc(-c2ccccn2)cs1 -2.75%, CC(=O)Nc1ccc(C2=NN(c3ccccc3)C(c3ccccc3)C2)cc1 (stereo not given) -1.63%, Cc1ccc(N2CN=C(c3ccccc3)NC2=S)cc1 -3.96%, COc1ccc(NC(=O)CC2C(=O)N(c3ccc(OC)cc3)C(=S)N2NC(=O)c2cccc(F)c2)cc1 (stereo not given) 3.31%, S=c1[nH]cnc2sc(-c3ccccc3)cc12 -1.11%, O=C(Oc1c(CN2CCOCC2)cc(Cl)c2cccnc12)c1ccccc1F 5.07%, NC(=S)N/N=C/c1ccc(-c2ccc([N+](=O)[O-])cc2)o1 -2.56%, COc1cc(NC(=S)NC(=O)CC(C)C)ccc1NC(=O)c1cc2ccccc2o1 -1.71%, CC1CCc2c(C(=O)OCC(=O)Nc3cccc(S(=O)(=O)N4CCCCCC4)c3)csc2C1 (stereo not given) -2.59%, C/C(=N\Nc1nc(C)cc(-c2ccccc2)n1)c1ccc(C)o1 0.731%, O=C(O)/C(=C\c1ccco1)NC(=O)c1ccccc1 -1.83%, COc1ccc(C)cc1-n1c(SCC(=O)NCC2CCCO2)nc2c([nH]c3ccccc32)c1=O (stereo not given) 4.06%, Oc1ccc(Cl)cc1/C=C/c1ccc2cccc(O)c2n1 0.904%, Cc1cccc2c1N(C(=O)c1ccco1)C(C)(C)c1ssc(=S)c1-2 -3.27%, COc1c(O)cc(O)c2c(=O)cc(-c3ccccc3)oc12 -0.768%, CCOc1cc(/C=N/NC(N)=S)cc(Br)c1OCc1ccccc1C -2.96%, COCCNC(=S)NN=C1CCC(c2ccccc2)CC1 (stereo not given) -3.79%, COc1ccc(C(=O)OCC(=O)c2c(N)n(C)c(=O)n(C)c2=O)cc1OC -2.72%, CN(C)C(=S)Nc1nc2ccccc2s1 -3.48%, O=C(c1ccccc1)[C@@H]1[C@@H]2C(=O)N(c3ccc(F)cc3)C(=O)[C@@H]2C2CCCN21 (stereo not given in full) -4.83%, O=C(NC(=S)NN1CCCCC1c1cccnc1)c1ccc(Cl)cc1Cl (stereo not given) -1.87%, Cc1cccc(NC(=S)NC(=O)C2CC2)c1 -4.23%, CCN(Cc1cc(=O)oc2cc(C)ccc12)c1ccccc1 -2.2%, O=C(CSc1cccc2cccnc12)N1CCCC1 -1.64%, CCOC(=O)C(Sc1cc(-c2ccccc2)nc2ncnn12)C(C)=O (stereo not given) -1.39%, CS(=O)(=O)Nc1ccc(-c2cn3cccnc3n2)cc1 -3.46%, COc1cccc(Oc2cnc(N)nc2-c2ccc(OC)cc2O)c1 -3.32%, Cc1cccc(NNC(=S)Nc2c(C)cccc2C)c1 -0.528%, CCc1ccc(NC(=O)Cc2ccc(-n3cccc3)cc2)cc1 -2.72%, O=C(CC(=O)Nc1cccc(F)c1)Nc1cccc(F)c1 -2.57%, CCNC(=S)N/N=C(\C)c1cccc(C(F)(F)F)c1 -3.78%, COc1ccc(C(=O)C2CCCN(Cc3cnc(N4CCCC4)s3)C2)cc1OC (stereo not given) -2.07%, CCOc1ccc2nc(NC3=NC(c4ccc(OC)cc4)CC(=O)N3)nc(C)c2c1 (stereo not given) -1.46%, S=C(Nc1ccccc1)Nc1nc2ccccc2n1CCOc1ccc(Br)cc1 1.19%, Cc1cccc(NC(=S)NC2CCCC2)n1 -2.16%, Cc1ccc2c(c1)NC(=O)[C@@]1(C)[C@@H](c3ccccc3)[C@H]3COc4ccc(Cl)cc4[C@@H]3N1C2=O 4.33%, Cc1ccc(Cn2c(/C=C/c3ccco3)nc3ccccc32)cc1 -2.82%, C#CCOCCOCCOCCNc1nc(N2CCN(C(=O)CCCCCCCCCCNC(=O)Cn3cc(C[C@@H](C)O)nn3)CC2)nc(N2CCN(C(=O)CCCCCCCCCCNC(=O)[C@@H]([C@H](C)O)n3cc(C)nn3)CC2)n1 -0.683%, Cc1nn(-c2ccccc2)c(Cl)c1/C=N/NC(=O)CNC(=O)c1ccccc1Cl -0.0024%, Cc1ccc(CN2CCSCC2)c(C)c1 -2.68%, COCCCNC(=O)CCC(=O)Nc1ccc2nc(N3CCOCC3)cc(C)c2c1 5.18%, Cc1ccc(C(=O)N=c2sccn2C)cc1S(=O)(=O)N1CCOCC1 -8.33%, COc1cc(/C=N/Nc2nc(C)cc(C)n2)cc(OC)c1OC -2.25%, COCCNC(=S)N/N=C(\C)c1ccc(OC(F)F)cc1 -5.08%, Cc1ccc(-c2c3c(=O)n(C)c(=O)n(C)c3cn2-n2cnnc2)cc1 5.01%, C/C(CS(=O)(=O)c1ccc(Cl)c(Cl)c1)=N/NC(N)=S -1.93%
